Results deposited as PubChem BioAssay AID1259279 (Sanger Institute, 2017)
Aim: 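Kinases that colorectal cancer cells need to survive, alone or with drugs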 (primary screen). Cells: LS180 human colorectal cancer cells. Knock-down reagent: siRNA pool against human genes. Treatment: anchor drug BYL719 at 1 µM, cetuximab at 5 µg/ml or trametinib at 10 nM, or DMSO vehicle only. Measurement: 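Cell viability versus a non-targeting pool, as a fraction and as a robust z-score from replicate means, plus a synergy score for each of three drugs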. Reading the numbers: viability z-score, no drug: higher = more viable cells after knock-down. Active means: 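a knock-down is called active, meaning essential, if its viability z-score in vehicle alone falls below -3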. Meaning of the calls: active = essential (knock-down alone cuts viability); inactive = no change without drug.
The deposit covers 794 reagents; below is a random part of them. Of all reagents, 11 (1.4%) got an active call. 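Calls reflect knock-down alone in the vehicle arm, not drug synergy.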 Not all columns of the deposit are shown. Not stated in the record: the amount of reagent, the time to read-out.

MAPK4 (mitogen-activated protein kinase 4): viability z-score, no drug = -0.962; activity call = inactive
PIKFYVE (phosphoinositide kinase, FYVE-type zinc finger containing): viability z-score, no drug = -0.082; activity call = inactive
TESK1 (testis associated actin remodelling kinase 1): viability z-score, no drug = 0.0423; activity call = inactive
CDK12 (cyclin dependent kinase 12): viability z-score, no drug = 0.395; activity call = inactive
PAK4 (p21 (RAC1) activated kinase 4): viability z-score, no drug = -0.881; activity call = inactive
MAGI2: viability z-score, no drug = 0.0902; activity call = inactive
EFNA3 (ephrin A3): viability z-score, no drug = 0.86; activity call = inactive
PFKP (phosphofructokinase, platelet): viability z-score, no drug = -1.37; activity call = inactive
DMPK (DM1 protein kinase): viability z-score, no drug = -1.13; activity call = inactive
TYK2 (tyrosine kinase 2): viability z-score, no drug = -0.413; activity call = inactive
ALPK1 (alpha kinase 1): viability z-score, no drug = 0.706; activity call = inactive
PSTK (phosphoseryl-tRNA kinase): viability z-score, no drug = -1.34; activity call = inactive
CDKL3 (cyclin dependent kinase like 3): viability z-score, no drug = 0.86; activity call = inactive
PCK2 (phosphoenolpyruvate carboxykinase 2, mitochondrial): viability z-score, no drug = -0.23; activity call = inactive
MAP3K11 (mitogen-activated protein kinase kinase kinase 11): viability z-score, no drug = 0.86; activity call = inactive
ACVR2A (activin A receptor type 2A): viability z-score, no drug = 0.661; activity call = inactive
SOX9 (SRY-box transcription factor 9): viability z-score, no drug = 0.83; activity call = inactive
NPR2 (natriuretic peptide receptor 2): viability z-score, no drug = 0.86; activity call = inactive
MAP3K2 (mitogen-activated protein kinase kinase kinase 2): viability z-score, no drug = 0.86; activity call = inactive
PIK3C2B: viability z-score, no drug = 0.793; activity call = inactive
DGKQ (diacylglycerol kinase theta): viability z-score, no drug = -2.77; activity call = inactive
LMTK2 (lemur tail kinase 2): viability z-score, no drug = 0.412; activity call = inactive
EPHA3 (EPH receptor A3): viability z-score, no drug = -1.71; activity call = inactive
COQ8B (coenzyme Q8B): viability z-score, no drug = -0.495; activity call = inactive

No new results follow: an excerpt of the list.
ACVR2A (activin A receptor type 2A): viability z-score, no drug = 0.661; activity call = inactive
SOX9 (SRY-box transcription factor 9): viability z-score, no drug = 0.83; activity call = inactive
NPR2 (natriuretic peptide receptor 2): viability z-score, no drug = 0.86; activity call = inactive
MAP3K2 (mitogen-activated protein kinase kinase kinase 2): viability z-score, no drug = 0.86; activity call = inactive
